Laboratory results as given in publication PMC10844685.
No constants are given. Whether binding was seen depends on the method and setting. Binding seen in cells or lysates may run through a third protein. Some entries that bind do so weakly or less than the wild type.

Target: T1, Di George syndrome critical region gene 8 (DGCR8) (human (endogenous in TNBC cell lines)) (UniProt Q8WYQ5)
T1 sequence: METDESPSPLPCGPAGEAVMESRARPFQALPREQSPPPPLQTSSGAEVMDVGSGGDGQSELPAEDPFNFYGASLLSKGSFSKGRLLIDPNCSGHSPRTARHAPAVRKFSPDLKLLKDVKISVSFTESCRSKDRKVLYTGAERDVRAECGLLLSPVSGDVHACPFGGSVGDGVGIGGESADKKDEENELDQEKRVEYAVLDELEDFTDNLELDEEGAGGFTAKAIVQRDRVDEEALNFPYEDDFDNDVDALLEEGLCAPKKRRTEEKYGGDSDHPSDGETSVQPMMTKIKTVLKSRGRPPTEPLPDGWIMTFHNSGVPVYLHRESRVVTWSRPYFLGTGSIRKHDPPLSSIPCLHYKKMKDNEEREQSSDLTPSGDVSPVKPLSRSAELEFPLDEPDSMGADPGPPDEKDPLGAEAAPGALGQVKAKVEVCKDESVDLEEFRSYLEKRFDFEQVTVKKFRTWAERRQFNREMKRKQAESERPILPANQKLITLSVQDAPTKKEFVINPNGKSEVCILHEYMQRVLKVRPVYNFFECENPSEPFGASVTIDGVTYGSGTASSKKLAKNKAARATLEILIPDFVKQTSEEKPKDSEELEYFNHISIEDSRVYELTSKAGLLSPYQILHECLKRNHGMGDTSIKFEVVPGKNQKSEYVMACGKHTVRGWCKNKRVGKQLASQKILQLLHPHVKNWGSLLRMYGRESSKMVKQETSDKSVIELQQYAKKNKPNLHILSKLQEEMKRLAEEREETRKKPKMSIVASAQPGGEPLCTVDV
Experiment: co-IP; cells lysed in RIPA buffer with protease inhibitor; 3 ug antibody overnight at 4 C; protein A/G PLUS-agarose 4 h; western blot; with and without ribonuclease treatment; control or METTL14-overexpressing cells

- binding: binds
B1: methyltransferase-like protein 14 (METTL14) (protein, UniProt Q9HCE5 1-456)
chain: MDSRLQEIRERQKLRRQLLAQQLGAESADSIGAVLNSKDEQREIAETRETCRASYDTSAPNAKRKYLDEGETDEDKMEEYKDELEMQQDEENLPYEEEIYKDSSTFLKGTQSLNPHNDYCQHFVDTGHRPQNFIRDVGLADRFEEYPKLRELIRLKDELIAKSNTPPMYLQADIEAFDIRELTPKFDVILLEPPLEEYYRETGITANEKCWTWDDIMKLEIDEIAAPRSFIFLWCGSGEGLDLGRVCLRKWGYRRCEDICWIKTNKNNPGKTKTLDPKAVFQRTKEHCLMGIKGTVKRSTDGDFIHANVDIDLIITEEPEIGNIEKPVEIFHIIEHFCLGRRRLHLFGRDSTIRPGWLTVGPTLTNSNYNAETYASYFSAPNSYLTGCTEEIERLRPKSPPPKSKSDRGGGAPRGGGRGGTSAGRGRERNRSNFRGERGGFRGGRGGAHRGGFPPR
